Literature values, collected in US20180185370A1, “PYRAZINOQUINAZOLINONE DERIVATIVES WITH ANTIBACTERIAL ACTIVITY, METHODS AND USES THEREOF” (UNIVERSIDADE DO PORTO, priority 2015, published 2018).
For at least one compound, name, drawing or mass did not settle the structure.

System: staphylococcal biofilms
Conditions: 500 mg/I of tetracycline; cited from earlier work

In the case of `CN(C)[C@@H]1C(O)=C(C(N)=O)C(=O)[C@@]2(O)C(O)=C3C(=O)c4c(O)cccc4[C@@](C)(O)[C@H]3C[C@@H]12` [tetracycline], the “eradication of 24-h preformed staphylococcal biofilms” value is given as “not eradicated”.
